Laboratory results as given in PubChem BioAssay AID540256 (National Center for Advancing Translational Sciences (NCATS), 2011).
Out of some 300,000 compounds screened, about 3,700 (1.2%) were called active. This list was built around the results that the source calls inconclusive (neither active nor inactive); the mix of calls is not that of the screen. Calls come from the whole dose curve; tested in HEK293 cells. Potencies beside an inconclusive call are fits to weak or partial responses and may not hold up.

test: qHTS for Inhibitors of binding or entry into cells for Lassa Virus; conditions: Lassa virus pseudotype entry inhibition, cell reporter; series mostly up to 37.9 µM; note: nearly all actives have a fitted effect of over 50% in size
Potency is the fitted concentration of half-maximal effect.

SMILES	Potency
CCc1nc(-c2cc3ccc(C)cc3[nH]c2=O)no1	inconclusive: 29.1 µM [activator, single point]
CCN(CCO)Cc1csc2ccccc12	inconclusive: 1.26 µM [inhibitor, single point]
COc1ccc(CC(=O)Nc2nn(C)c3nc4c(C)cccc4cc23)cc1	inactive
CN(C)C(CNC(=O)CNC(=O)c1ccc2ccccc2c1)c1ccccc1 (stereo not drawn)	inconclusive: 4.47 µM [inhibitor, full curve, poor fit]
Cc1nc2ccc(NC(=O)CCC3CCCC3)cc2s1	inconclusive: 12.6 µM [activator, partial curve, poor fit]
CNc1oc(-c2ccccc2Cl)nc1P(=O)(c1ccccc1)c1ccccc1	inconclusive: 14.1 µM [inhibitor, single point]
O=C(Nc1ccc(S(=O)(=O)Nc2ncccn2)cc1)c1cncc(Br)c1	inconclusive: 22.4 µM [activator, partial curve, poor fit]
CN(C)c1ccc(NC(=O)CSc2nc(N)c(C(=O)Nc3ccc(N(C)C)cc3)s2)cc1	inconclusive: 35.5 µM [inhibitor, single point]
O=C(Nc1cc(=O)c2ccccc2o1)N1CCCCC1	inconclusive: 16.4 µM [inhibitor, single point]
COC(=O)c1nn(Cc2ccccc2)c(=O)c2ccccc12	inactive
COc1cccc(CSc2nc3cc(C(=O)NC4CCCC4)ccc3c(=O)n2Cc2ccccc2)c1	inactive
O=C(NC1CCCCCCC1)c1cc(COc2ccc3ncccc3c2)on1	inconclusive: 2.82 µM [inhibitor, full curve]
CN(C)c1ccc(C(CNS(=O)(=O)c2ccc(F)cc2)c2c[nH]c3ccccc23)cc1 (stereo not drawn)	inactive
COC(=O)c1ccc(CSc2nc3c([nH]c4ccccc43)c(=O)n2-c2ccc(Cl)cc2)o1	inconclusive: 14.1 µM [inhibitor, single point]
O=C(O)c1ccc(N/N=C/c2cc(Br)cs2)cc1	inconclusive: 2.24 µM [inhibitor, partial curve, poor fit]
O=C(N/N=C/C(Br)=C/c1ccccc1)c1ccccc1F	inconclusive: 1.78 µM [activator, partial curve]
O=C(O)CCc1ccc(-c2cccs2)n1NC(=O)c1ccc(Cl)cc1	inconclusive: 16.4 µM [inhibitor, partial curve, poor fit]
CC(Sc1nnc(NC2CC2)s1)C(=O)Nc1ccc(N2CCOCC2)cc1 (stereo not drawn)	inactive
O=C1CC(c2nc3ccccc3[nH]2)CN1c1cccc(Cl)c1 (stereo not drawn)	inactive
CN1c2ccc([N+](=O)[O-])cc2N(C)C1(C)c1ccccc1 (stereo not drawn)	inactive
COc1nc(C)c2cc(C)oc2n1	inactive
NC(=O)c1ccsc1NC(=O)CS(=O)(=O)c1ccc(F)cc1	inconclusive: 35.5 µM [activator, single point]
O=c1cc(NCCO)c2ccccc2o1	inactive

Pulled by compound from the list above:
SMILES	Potency
O=C(NC1CCCCCCC1)c1cc(COc2ccc3ncccc3c2)on1	inconclusive: 2.82 µM [inhibitor, full curve]
O=C1CC(c2nc3ccccc3[nH]2)CN1c1cccc(Cl)c1 (stereo not drawn)	inactive
O=C(N/N=C/C(Br)=C/c1ccccc1)c1ccccc1F	inconclusive: 1.78 µM [activator, partial curve]

(listing goes on)

SMILES	Potency
Cc1c(C(=O)NCCc2ccccc2)oc2ccc(S(=O)(=O)N3CCC4(CC3)OCCO4)cc12	active: 23.1 µM
Fc1ccc(-c2csc(N3CCSCC3)n2)cc1	inactive
Cc1ccc(C)c(N2CCN(CCCNC(=O)c3cnn(-c4ccccc4Cl)c3C3CCN(C(=O)OC(C)(C)C)CC3)CC2)c1	inconclusive: 25.1 µM [inhibitor, partial curve, poor fit]
CCCn1c(=O)[nH]c(=O)c2c1nc(-c1ccc(OC(F)(F)C(F)C(F)(F)F)cc1)n2CCOC (stereo not drawn)	inconclusive: 1.12 µM [inhibitor, full curve]
Cc1cc(C)c(NC(=O)Cn2c(=O)n(-c3ccc(CC(=O)NCC4CCCO4)cc3)c(=O)c3ccccc32)c(C)c1 (stereo not drawn)	inactive
O=C(CSc1nnc2sc3ccccc3n12)c1ccco1	inactive
C[C@@H]1CC2CCC[C@@H]2[C@]2(O1)C(=O)Nc1cccc(Br)c12 (stereo partly drawn)	inconclusive: 2.37 µM [activator, partial curve, poor fit]
CCOCCCNC(=O)C1CCCCN1S(=O)(=O)c1ccc(F)cc1 (stereo not drawn)	inconclusive: 29.1 µM [activator, single point]
O=C1/C(=C/c2ccco2)CCC1C1CCCC1 (stereo not drawn)	inconclusive: 11.2 µM [activator, partial curve]
O=C(NCC(c1ccco1)N1CCCC1)c1cn(Cc2ccccc2)nc1-c1ccccc1 (stereo not drawn)	inactive
COc1ccc(C2c3ccc4ccccc4c3Oc3ncn(Cc4ccco4)c(=N)c32)cc1OC (stereo not drawn)	inconclusive: 12.6 µM [inhibitor, single point]
O=C1NC(=Nc2ccc(Cl)cc2)/C(=C/c2ccco2)S1	inactive
O=C(CSCc1cccc(Br)c1)N=Nc1c(O)[nH]c2ccccc12	inconclusive: 29.1 µM [inhibitor, single point]
CCOc1ccccc1N1CC(C(=O)NNC(=O)c2cc(OC)c(OC)c(OC)c2)CC1=O (stereo not drawn)	inconclusive: 1.26 µM [inhibitor, single point]
Cc1cccc(N2CCN(S(=O)(=O)c3ccc(Cl)nc3)CC2C)c1 (stereo not drawn)	inconclusive: 35.5 µM [inhibitor, single point]
CCCCN(CC)CCCNC(=O)C1CCN(c2ncnc3c2sc2cccc(F)c23)CC1	inconclusive: 17.8 µM [inhibitor, single point]
COC(=O)NNC(=O)COc1ccc(Cl)cc1	inconclusive: 0.146 µM [inhibitor, full curve]
CCn1c(SCc2ccc(F)cc2)nnc1C1CCN(S(=O)(=O)c2ccc(OC)cc2)CC1	inconclusive: 29.1 µM [inhibitor, single point]
O=[N+]([O-])c1cccc(N/N=C/c2cc([N+](=O)[O-])ccc2O)c1	inconclusive: 11.2 µM [inhibitor, partial curve, poor fit]
COc1ccc2c(c1)c1c(c(=O)n(Cc3ccccc3)c(=O)n1CC(=O)NCc1ccccc1Cl)n2C	inactive
COc1ccc(CN(C)Cc2nc(Cc3cccc(F)c3)no2)c2cccnc12	inconclusive: 7.08 µM [inhibitor, partial curve, poor fit]
O=C(c1c(F)cccc1F)N1CCCC(c2nc(-c3cccs3)no2)C1 (stereo not drawn)	inconclusive: 8.91 µM [inhibitor, partial curve, poor fit]
COc1cc(C2N(c3ccc(Cl)c(Cl)c3)C(=O)C3CCCN32)cc(OC)c1OC (stereo not drawn)	inconclusive: 29.1 µM [activator, single point]

SMILES	Potency
Cn1c(CNc2ccc(F)cc2)nc2ccccc21	inactive
Cc1ccc(NC(=O)Cn2cnc3sc(C(=O)O)c(C)c3c2=O)cc1Cl	inconclusive: 3.55 µM [activator, full curve, poor fit]
COc1cc(NC(=O)CN(c2ccc(C)cc2)S(=O)(=O)c2cccc3nonc23)cc(OC)c1	inactive
CC(C)=C1CCC(C)CC1=NNC(N)=S (stereo not drawn)	inconclusive: 1.26 µM [inhibitor, single point]
Cn1ncc(Br)c1C(=O)Nc1cccc(C(F)(F)F)c1	inactive
CCc1cccc(NC(=O)CSC2=Nc3ccccc3N=C(c3ccc(F)cc3)C2)c1	inactive
Cc1ccc2nc(NC(=O)COc3ccc(F)cc3)sc2c1	inconclusive: 6.31 µM [activator, full curve, poor fit]
CCOc1cc(CNc2ccc(O)cc2)ccc1OCc1ccc(Cl)cc1Cl	inconclusive: 11.2 µM [inhibitor, partial curve]
COc1cccc(OC)c1C(=O)N1CCN(C(=O)c2ccc(-c3ccccc3)cc2)CC1	inconclusive: 8.91 µM [inhibitor, partial curve, poor fit]
Cc1cc(Nc2ccc3c(c2)OCCO3)c2cc(Cl)ccc2n1	inactive
CN(Cc1c(F)cccc1Cl)C(=O)CCc1c[nH]c2ccccc12	inactive
Cc1cc(C)c2nc(-c3ccccn3)cc(C(=O)NCc3ccc(S(N)(=O)=O)cc3)c2c1	inconclusive: 8.91 µM [inhibitor, partial curve]
CCOc1cc(C(=O)Nc2ccc(N3CCOCC3)cc2)cc(Br)c1OC	inconclusive: 22.4 µM [inhibitor, single point]
O=C(Cn1c(=O)c2cccn2c2ccccc21)NCCc1ccccc1	inconclusive: 35.5 µM [inhibitor, single point]
CCc1ccc(NC(=O)CSc2nncn2-c2cccnc2)cc1	inconclusive: 5.62 µM [activator, full curve, poor fit]
CCOC(=O)C(Sc1nnc(-c2ccncc2)o1)C(C)=O (stereo not drawn)	inconclusive: 29.1 µM [activator, single point]
COc1ccccc1N1CCN(CCCCN2C(=O)c3ccccc3C2=O)CC1	inconclusive: 0.0092 µM [activator, full curve, poor fit]
Cc1c(CCNC(=O)c2ccc(Br)o2)sc2nc(-c3ccc(F)cc3)nn12	inconclusive: 35.5 µM [inhibitor, partial curve, poor fit]
CCOC(=O)CNC(=O)C1c2ccccc2C(=O)N(c2ccc(OC)cc2)C1c1ccc(OC)cc1 (stereo not drawn)	inconclusive: 14.6 µM [inhibitor, partial curve, poor fit]
Cc1cccc(Oc2nc3c(C)cccn3c(=O)c2/C=C(\C#N)c2nc3ccccc3[nH]2)c1	inactive
COCCCNCCOc1cc(C(C)C)ccc1C	inconclusive: 29.1 µM [inhibitor, single point]
O=C(COc1ccc2ccccc2c1)N1CCN(CC2CC3C=CC2C3)CC1 (stereo not drawn)	inconclusive: 35.5 µM [inhibitor, partial curve, poor fit]
